Experimental data reported in article PMC9525610.

The chains behind the UniProt entries cited, without tags or fusion partners.
UniProt Q9NRC8: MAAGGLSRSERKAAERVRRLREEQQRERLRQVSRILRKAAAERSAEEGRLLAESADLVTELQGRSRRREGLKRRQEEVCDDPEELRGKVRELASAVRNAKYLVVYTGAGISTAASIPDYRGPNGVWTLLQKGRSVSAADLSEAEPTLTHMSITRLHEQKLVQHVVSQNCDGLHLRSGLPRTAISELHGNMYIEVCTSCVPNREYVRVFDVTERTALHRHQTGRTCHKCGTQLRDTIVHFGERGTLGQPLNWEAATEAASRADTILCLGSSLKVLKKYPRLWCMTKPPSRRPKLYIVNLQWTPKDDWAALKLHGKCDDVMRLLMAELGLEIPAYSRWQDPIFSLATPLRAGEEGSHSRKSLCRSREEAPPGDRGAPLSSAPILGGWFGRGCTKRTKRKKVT

Biological target: Flag-SIRT7 (UniProt Q9NRC8)
Test: affinity purification with mass spectrometry; Flag-SIRT7 complex pulled down from HEK293T cells by anti-Flag immunomagnetic beads; SDS-PAGE, Coomassie staining, differential band cut for LC-MS/MS

binding: binds
B1: O-GlcNAc transferase (OGT), endogenous in HEK293T (enzyme, UniProt O15294 1-1046)
chain: MASSVGNVADSTEPTKRMLSFQGLAELAHREYQAGDFEAAERHCMQLWRQEPDNTGVLLLLSSIHFQCRRLDRSAHFSTLAIKQNPLLAEAYSNLGNVYKERGQLQEAIEHYRHALRLKPDFIDGYINLAAALVAAGDMEGAVQAYVSALQYNPDLYCVRSDLGNLLKALGRLEEAKACYLKAIETQPNFAVAWSNLGCVFNAQGEIWLAIHHFEKAVTLDPNFLDAYINLGNVLKEARIFDRAVAAYLRALSLSPNHAVVHGNLACVYYEQGLIDLAIDTYRRAIELQPHFPDAYCNLANALKEKGSVAEAEDCYNTALRLCPTHADSLNNLANIKREQGNIEEAVRLYRKALEVFPEFAAAHSNLASVLQQQGKLQEALMHYKEAIRISPTFADAYSNMGNTLKEMQDVQGALQCYTRAIQINPAFADAHSNLASIHKDSGNIPEAIASYRTALKLKPDFPDAYCNLAHCLQIVCDWTDYDERMKKLVSIVADQLEKNRLPSVHPHHSMLYPLSHGFRKAIAERHGNLCLDKINVLHKPPYEHPKDLKLSDGRLRVGYVSSDFGNHPTSHLMQSIPGMHNPDKFEVFCYALSPDDGTNFRVKVMAEANHFIDLSQIPCNGKAADRIHQDGIHILVNMNGYTKGARNELFALRPAPIQAMWLGYPGTSGALFMDYIITDQETSPAEVAEQYSEKLAYMPHTFFIGDHANMFPHLKKKAVIDFKSNGHIYDNRIVLNGIDLKAFLDSLPDVKIVKMKCPDGGDNADSSNTALNMPVIPMNTIAEAVIEMINRGQIQITINGFSISNGLATTQINNKAATGEEVPRTIIVTTRSQYGLPEDAIVYCNFNQLYKIDPSTLQMWANILKRVPNSVLWLLRFPAVGEPNIQQYAQNMGLPQNRIIFSPVAPKEEHVRRGQLADVCLDTPLCNGHTTGMDVLWAGTPMVTMPGETLASRVAASQLTCLGCLELIAKNRQEYEDIAVKLGTDLEYLKKVRGKVWKQRISSPLFNTKQYTMELERLYLQMWEHYAAGNKPDHMIKPVEVTESA

No constants are given. Whether binding was seen depends on the method and setting. In cells and extracts the contact can be indirect. These calls come from enrichment with a bait or labelling near it, and not all partners need be listed.
